Assay results: US6329189A, “Enzyme producing tartaric acid ether compound and process for producing tartaric acid ether compounds using this enzyme” (Kikkoman Corporation, priority 1998, dated 2001)
At least one structure is not confirmed: it was looked up by name or label, or the drawing left a doubt.

System: enzyme producing tartaric acid ether compound
Test: Substrate specificity of the present enzyme in the presence of (±)-trans-epoxysuccinic acid
Type: biochemical, Aspergillus oryzae
Description: The activities of the present enzyme to the various substrate compounds having a phenolic hydroxyl group(s) shown in Table 1 in the presence of (±)-trans-epoxysuccinic acid were measured and shown as relative activities (%) with reference to the activity to genistein which was expressed as 100. The measurement of activity was conducted under the same conditions as used for the determination of titer described later.
Enzyme titer was determined by the following method. The amount of the enzyme that produces 1 μmol of 2-hydroxy-3-[[5-hydroxy-3-(4-hydroxyphenyl)-4-oxo-4H-1-benzopyran-7-yl]oxy]-butanedioic acid in one minute in the reaction of the following formula (6) is expressed as 1 U. [drawing 1]
Substrate solution I: 60 mM (±)-trans-epoxysuccinic acid (Tokyo Kasei Kogyo Co., Ltd.) was dissolved in 100 ml of a 50 mM sodium acetate-acetic acid buffer (pH 6.0), and the solution was adjusted to pH 6.0 with sodium hydroxide.
Substrate solution II: Prepared by dissolving 0.3 mmol of genistein (Funakoshi Co., Ltd.) in 100 ml of dimethyl sulfoxide. […]
2-hydroxy-3-[[5-hydroxy-3-(4-hydroxyphenyl)-4-oxo-4H-1-benzopyran-7-yl]oxy]-butanedioic acid produced from the reaction of the formula (6) was determined by HPLC under the following conditions: […]

Compound: O=C(O)/C=C/c1ccc(O)cc1 [coumaric acid]
- Action of the enzyme to the phenolic hydroxyl groups of the substrate (in words) (in the presence of (±)-trans-epoxysuccinic acid): acts faintly
- Relative activity (%) (substrate in the presence of (±)-trans-epoxysuccinic acid, decrement of genistein as substrate expressed as 100): 5%
